Measured data: PubChem BioAssay AID1224829 (NIAID, 2016)

Test: 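Secondary check of hits that alter LPS-induced p65 translocation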 (follow-up of hits)
System: mouse RAW264.7 G9 macrophage reporter cells
Knock-down reagent: single siRNA against mouse genes, 100 nM
Duration: 2 days of siRNA knock-down, then 40 min of LPS before fixing
Conditions: LPS (Salmonella minnesota R595) at 10 ng/ml
Detection: 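Imaging of GFP-p65 after 40 min of LPS; nuclear over perinuclear ring intensity ratio, scaled to plate median and non-targeting control wells, given as z-score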
Scale: p65 translocation z-score: higher = more nuclear NF-kappaB p65 after LPS
Call rule: 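An siRNA is called active when the mean z-score of its two replicates is above 2 or below -2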
Calls: active = changed p65 translocation (either direction); inactive = no clear change
The whole screen tested about 3,800 reagents; shown is a random part of them. 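Calls cover raised and lowered translocation; gene median uses one vendor's three siRNAs; qiagen siRNAs acted more weakly than ambion siRNAs.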 Unmarked entries are inactive. The numbers tell different reagents against one gene apart. Further read-outs or replicates are left out here.

{"gene": "Zscan21 (zinc finger and SCAN domain containing 21)", "siRNA no.": 1, "siRNA vendor or control pool": "ambion single siRNA", "p65 translocation z-score, replicate mean": "-5.1 (active)"}
{"gene": "Zscan21 (zinc finger and SCAN domain containing 21)", "siRNA no.": 2, "siRNA vendor or control pool": "ambion single siRNA", "p65 translocation z-score, replicate mean": "-4.64 (active)"}
{"gene": "Zscan21 (zinc finger and SCAN domain containing 21)", "siRNA no.": 3, "siRNA vendor or control pool": "ambion single siRNA", "p65 translocation z-score, replicate mean": "-3.06 (active)"}
{"gene": "Zscan21 (zinc finger and SCAN domain containing 21)", "siRNA no.": 4, "siRNA vendor or control pool": "qiagen single siRNA", "p65 translocation z-score, replicate mean": "2.23 (active)"}
{"gene": "Zscan21 (zinc finger and SCAN domain containing 21)", "siRNA no.": 5, "siRNA vendor or control pool": "qiagen single siRNA", "p65 translocation z-score, replicate mean": -0.974}
{"gene": "Zscan21 (zinc finger and SCAN domain containing 21)", "siRNA no.": 6, "siRNA vendor or control pool": "qiagen single siRNA", "p65 translocation z-score, replicate mean": "-3.21 (active)"}
{"gene": "Inka2 (inka box actin regulator 2)", "siRNA no.": 1, "siRNA vendor or control pool": "ambion single siRNA", "p65 translocation z-score, replicate mean": "-3.18 (active)"}
{"gene": "Inka2 (inka box actin regulator 2)", "siRNA no.": 2, "siRNA vendor or control pool": "ambion single siRNA", "p65 translocation z-score, replicate mean": "-2.19 (active)"}
{"gene": "Inka2 (inka box actin regulator 2)", "siRNA no.": 3, "siRNA vendor or control pool": "ambion single siRNA", "p65 translocation z-score, replicate mean": 0.633}
{"gene": "Inka2 (inka box actin regulator 2)", "siRNA no.": 4, "siRNA vendor or control pool": "qiagen single siRNA", "p65 translocation z-score, replicate mean": "2.12 (active)"}
{"gene": "Inka2 (inka box actin regulator 2)", "siRNA no.": 5, "siRNA vendor or control pool": "qiagen single siRNA", "p65 translocation z-score, replicate mean": 0.493}
{"gene": "Inka2 (inka box actin regulator 2)", "siRNA no.": 6, "siRNA vendor or control pool": "qiagen single siRNA", "p65 translocation z-score, replicate mean": 1.08}

The list goes on, starting with the last 3 of the part before.
{"gene": "Inka2 (inka box actin regulator 2)", "siRNA no.": 4, "siRNA vendor or control pool": "qiagen single siRNA", "p65 translocation z-score, replicate mean": "2.12 (active)"}
{"gene": "Inka2 (inka box actin regulator 2)", "siRNA no.": 5, "siRNA vendor or control pool": "qiagen single siRNA", "p65 translocation z-score, replicate mean": 0.493}
{"gene": "Inka2 (inka box actin regulator 2)", "siRNA no.": 6, "siRNA vendor or control pool": "qiagen single siRNA", "p65 translocation z-score, replicate mean": 1.08}
{"gene": "Pcolce2 (procollagen C-endopeptidase enhancer 2)", "siRNA no.": 1, "siRNA vendor or control pool": "ambion single siRNA", "p65 translocation z-score, replicate mean": "-3.67 (active)"}
{"gene": "Pcolce2 (procollagen C-endopeptidase enhancer 2)", "siRNA no.": 2, "siRNA vendor or control pool": "ambion single siRNA", "p65 translocation z-score, replicate mean": -0.0581}
{"gene": "Pcolce2 (procollagen C-endopeptidase enhancer 2)", "siRNA no.": 3, "siRNA vendor or control pool": "ambion single siRNA", "p65 translocation z-score, replicate mean": 0.0958}
{"gene": "Pcolce2 (procollagen C-endopeptidase enhancer 2)", "siRNA no.": 4, "siRNA vendor or control pool": "qiagen single siRNA", "p65 translocation z-score, replicate mean": -0.34}
{"gene": "Pcolce2 (procollagen C-endopeptidase enhancer 2)", "siRNA no.": 5, "siRNA vendor or control pool": "qiagen single siRNA", "p65 translocation z-score, replicate mean": "2.25 (active)"}
{"gene": "Pcolce2 (procollagen C-endopeptidase enhancer 2)", "siRNA no.": 6, "siRNA vendor or control pool": "qiagen single siRNA", "p65 translocation z-score, replicate mean": 1.23}
{"gene": "Rab24 (RAB24, member RAS oncogene family)", "siRNA no.": 1, "siRNA vendor or control pool": "ambion single siRNA", "p65 translocation z-score, replicate mean": -1.43}
{"gene": "Rab24 (RAB24, member RAS oncogene family)", "siRNA no.": 2, "siRNA vendor or control pool": "ambion single siRNA", "p65 translocation z-score, replicate mean": "-2.24 (active)"}
{"gene": "Rab24 (RAB24, member RAS oncogene family)", "siRNA no.": 3, "siRNA vendor or control pool": "ambion single siRNA", "p65 translocation z-score, replicate mean": "-2.99 (active)"}
{"gene": "Rab24 (RAB24, member RAS oncogene family)", "siRNA no.": 4, "siRNA vendor or control pool": "qiagen single siRNA", "p65 translocation z-score, replicate mean": "3.21 (active)"}
{"gene": "Rab24 (RAB24, member RAS oncogene family)", "siRNA no.": 5, "siRNA vendor or control pool": "qiagen single siRNA", "p65 translocation z-score, replicate mean": -1.97}
{"gene": "Rab24 (RAB24, member RAS oncogene family)", "siRNA no.": 6, "siRNA vendor or control pool": "qiagen single siRNA", "p65 translocation z-score, replicate mean": "-2.17 (active)"}
{"gene": "Add2 (adducin 2)", "siRNA no.": 1, "siRNA vendor or control pool": "ambion single siRNA", "p65 translocation z-score, replicate mean": 1.04}
{"gene": "Add2 (adducin 2)", "siRNA no.": 2, "siRNA vendor or control pool": "ambion single siRNA", "p65 translocation z-score, replicate mean": 0.554}
{"gene": "Add2 (adducin 2)", "siRNA no.": 3, "siRNA vendor or control pool": "ambion single siRNA", "p65 translocation z-score, replicate mean": -1.16}
{"gene": "Add2 (adducin 2)", "siRNA no.": 4, "siRNA vendor or control pool": "qiagen single siRNA", "p65 translocation z-score, replicate mean": 1.41}
{"gene": "Add2 (adducin 2)", "siRNA no.": 5, "siRNA vendor or control pool": "qiagen single siRNA", "p65 translocation z-score, replicate mean": -0.218}
{"gene": "Add2 (adducin 2)", "siRNA no.": 6, "siRNA vendor or control pool": "qiagen single siRNA", "p65 translocation z-score, replicate mean": "-3.83 (active)"}
